The values below are quoted from earlier work in patent publication US7514254B2, “Plant-derived alkaline alpha-galactosidase” (The State of Israel, Ministry of Agriculture & Rural …, priority 1998, dated 2009).

The conditions of the data set: pNPG; literature; cited from earlier work.

Take “enzyme described by Zhu et al.: recombinant acid alpha-galactosidase from green coffee beans produced in Pichia pastoris”: the “pH optimum / maximal activity” value was 6.4 and the “second pH peak” value is recorded as 4.5.
